Source: the supplement of paper PMC8256030
Values joined by “and” are separate entries in the source; they are usually repeats but may differ in a detail not shown here. Equal values may be shown once. The list shows a part of the results. This data set is noisy: repeats of one test often differ as much as different tests do.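 HEK293T cells were given each compound shortly before transfection with a reporter in which red mCherry is followed by the SARS-CoV-2 frameshift element and then GFP in the −1 frame, so GFP appears only after frameshifting.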

Tests used:
[1] = test system: SARS-CoV-2 -1 PRF reporter mCherry-FSE-GFP(-1); test: mCherry (red) intensity as percent of control; higher = higher upstream reporter expression; details: 10 µM; 24 h; HEK293T
[2] = test system: SARS-CoV-2 -1 PRF reporter mCherry-FSE-GFP(-1); test: percent effect, decrease of GFP/mCherry ratio (-1 PRF reporter) relative to controls; higher = stronger frameshift inhibition; details: 10 µM; 24 h; HEK293T

| SMILES | mCherry [1] | percent effect [2] |
| --- | --- | --- |
| CCCCN1CCC(CNC(=O)c2c3n(c4ccccc24)CCCO3)CC1 [piboserod] | 95.8% | -1.93% |
| COc1ccc2cc([C@H](C)C(=O)O)ccc2c1 [Naproxen] | 101% | 1.47% |
| CC(C(=O)O)c1ccc(C(=O)c2ccccc2)s1 (stereo unspecified) [tiaprofenic acid] | 74.1% | -4.48% |
| C[C@H]1C[C@H]2[C@@H]3CCC4=CC(=O)C=C[C@]4(C)[C@@]3(F)[C@@H](O)C[C@]2(C)[C@@]1(O)C(=O)COP(=O)(O)O | 104% | 0.112% |
| CCNCC1CCN(c2c(F)cc3c(=O)c(C(=O)O)cn(CC)c3c2F)C1 (stereo unspecified) [merafloxacin] | 82.5% | 25% |
| NC(=O)NC1NC(=O)NC1=O (stereo unspecified) | 104% | -0.493% |
| Nc1ncnc2nc[nH]c12 | 93.9% | -9.86% |
| Cc1nc2c([nH]1)c(=O)n(C)c(=O)n2Cc1ccco1 [furafylline] | 95.5% | 5.21% |
| Cc1ccc(S(=O)(=O)NC(=O)NN2CC3CCCC3C2)cc1 (stereo unspecified) [gliclazide] | 97.3% and 78.2% | 0.581% and -1.42% |
| CC(CN1c2ccccc2Sc2cccnc21)N(C)C (stereo unspecified) [isothipendyl] | 88.1% | -3.01% |
| O=C(O)c1ccccc1 | 103% | -2.06% |
| C[C@H](CCC(=O)O)[C@H]1CC[C@H]2[C@@H]3[C@H](O)C[C@@H]4C[C@H](O)CC[C@]4(C)[C@H]3CC[C@]12C [chenodeoxycholic acid] | 119% and 106% | -0.982% and -1.53% |
| C[C@@H]1C[C@H]2[C@@H]3C[C@H](F)C4=CC(=O)C=C[C@]4(C)[C@@]3(F)[C@@H](O)C[C@]2(C)[C@@]1(O)C(=O)COC(=O)C(C)(C)C | 107% | -2.88% |

A second format for 2 compounds above.
C[C@H]1C[C@H]2[C@@H]3CCC4=CC(=O)C=C[C@]4(C)[C@@]3(F)[C@@H](O)C[C@]2(C)[C@@]1(O)C(=O)COP(=O)(O)O
  mCherry [1]: 104%
  percent effect [2]: 0.112%
Cc1nc2c([nH]1)c(=O)n(C)c(=O)n2Cc1ccco1 [furafylline]
  mCherry [1]: 95.5%
  percent effect [2]: 5.21%
